Experiment [1] deals with MYCN (human (endogenous in KELLY)) (UniProt P04198). Kind of experiment: co-IP; endogenous proteins; 200 µg nuclear protein of KELLY cells with doxycycline-inducible RUNX1T1 shRNA, with and without doxycycline (1 µg/mL, 72 h); anti-MYCN antibody or normal mouse IgG overnight at 4 °C, Protein G agarose; immunoblot. Background: Immunoblotting shows a protein as a band on a membrane.

Chains of the proteins cited; added tags and fusions are not shown.
UniProt P04198: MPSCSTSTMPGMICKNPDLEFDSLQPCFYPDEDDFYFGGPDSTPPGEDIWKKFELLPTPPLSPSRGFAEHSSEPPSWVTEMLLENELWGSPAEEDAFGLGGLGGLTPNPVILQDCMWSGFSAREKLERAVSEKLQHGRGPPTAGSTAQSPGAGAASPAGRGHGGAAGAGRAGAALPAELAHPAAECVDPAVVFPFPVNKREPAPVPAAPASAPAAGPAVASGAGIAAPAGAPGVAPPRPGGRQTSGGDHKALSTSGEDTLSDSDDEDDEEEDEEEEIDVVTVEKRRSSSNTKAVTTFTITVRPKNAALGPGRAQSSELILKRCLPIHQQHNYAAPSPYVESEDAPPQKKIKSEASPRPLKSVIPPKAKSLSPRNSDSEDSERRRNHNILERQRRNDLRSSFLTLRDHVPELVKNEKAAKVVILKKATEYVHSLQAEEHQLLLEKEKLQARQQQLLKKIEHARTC
UniProt P61244: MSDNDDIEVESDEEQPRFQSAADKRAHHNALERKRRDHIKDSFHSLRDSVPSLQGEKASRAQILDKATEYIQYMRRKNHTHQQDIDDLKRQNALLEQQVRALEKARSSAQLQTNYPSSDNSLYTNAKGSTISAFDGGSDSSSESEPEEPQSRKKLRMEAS

The target in experiment [2] is T1, 15N-labelled NHR4 MYND domain of RUNX1T1 (UniProt Q06455 510-559, 15N-labelled).
T1 chain: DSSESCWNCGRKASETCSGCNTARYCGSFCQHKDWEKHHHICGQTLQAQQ
Kind of experiment: NMR titration; 15N-HSQC of 60 µM 15N-labelled NHR4 MYND; peptide titrated in steps of 0.5 molar equivalents up to 12; 20 mM Mes, 100 mM NaCl, 120 µM ZnAc, 2 mM TCEP pH 6; 298 K; chemical shift perturbations of three signals fitted to a 1:1 model; both purified.

Consider 3 molecules from paper PMC11239676 (2024).

These are yes or no findings as the source states them, for the method shown. For part of these data: In cells and extracts the contact can be indirect. Some results given as binding are weak or reduced against the parent protein; the word gives no strength.

As to MAX (from UniProt P61244 1-160), the binding result in experiment [1] is “binds”.
Regarding Ac-LNQPPPPLIRPAN-NH2 [RCOR3_3 peptide (human RCOR3 residues 448-460)], the binding entry in experiment [2] is listed as “binds”.
On to Ac-TISNPPPLISSAK-NH2 [NCOR2 peptide (human NCOR2 residues 1101-1113)], for which the binding result in experiment [2] was “binds”.
